Experimental data from article PMC10929188.
No constants are given. Whether binding was seen depends on the method and setting. In cells and extracts the contact can be indirect. Some binding calls cover weakened binding; strength is not graded here.

By UniProt entry, the sequences of proteins in these tests, tags left out.
UniProt P35222: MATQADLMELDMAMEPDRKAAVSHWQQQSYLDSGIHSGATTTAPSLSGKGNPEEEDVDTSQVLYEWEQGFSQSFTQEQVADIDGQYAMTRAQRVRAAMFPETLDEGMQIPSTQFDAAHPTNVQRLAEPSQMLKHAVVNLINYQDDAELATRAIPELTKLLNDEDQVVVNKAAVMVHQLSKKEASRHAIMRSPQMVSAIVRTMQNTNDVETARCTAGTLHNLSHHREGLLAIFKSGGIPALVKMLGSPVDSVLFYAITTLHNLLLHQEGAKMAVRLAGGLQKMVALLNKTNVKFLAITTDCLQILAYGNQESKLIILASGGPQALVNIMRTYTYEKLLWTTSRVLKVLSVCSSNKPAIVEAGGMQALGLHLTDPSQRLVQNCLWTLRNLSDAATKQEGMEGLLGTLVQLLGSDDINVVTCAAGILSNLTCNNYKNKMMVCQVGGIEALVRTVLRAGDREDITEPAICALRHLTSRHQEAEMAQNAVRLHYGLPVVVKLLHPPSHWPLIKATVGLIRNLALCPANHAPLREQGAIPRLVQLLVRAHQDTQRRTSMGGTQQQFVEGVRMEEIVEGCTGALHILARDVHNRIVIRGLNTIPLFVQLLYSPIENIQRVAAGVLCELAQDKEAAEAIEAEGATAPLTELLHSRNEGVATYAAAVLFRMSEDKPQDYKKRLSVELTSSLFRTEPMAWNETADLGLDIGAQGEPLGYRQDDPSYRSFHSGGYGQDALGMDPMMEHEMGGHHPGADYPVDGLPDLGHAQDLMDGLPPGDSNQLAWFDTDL
UniProt P63104: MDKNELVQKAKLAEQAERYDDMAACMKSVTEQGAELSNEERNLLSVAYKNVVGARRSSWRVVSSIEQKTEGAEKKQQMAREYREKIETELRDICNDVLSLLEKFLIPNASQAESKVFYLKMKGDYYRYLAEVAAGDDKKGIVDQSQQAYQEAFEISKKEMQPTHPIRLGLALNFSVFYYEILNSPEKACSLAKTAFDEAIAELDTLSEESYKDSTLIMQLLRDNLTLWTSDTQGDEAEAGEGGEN

Target: β-catenin (human (endogenous in MHCC-97H)) (UniProt P35222)
Assay: co-IP; HCC cell lysates (MHCC-97H), about 1 ug/uL protein, 1 ug antibody against the target protein at 4 C for 12 h, protein A agarose beads, washed with RIPA lysate buffer, western blot; cells transfected with YWHAZ plasmid, siSLC2A1-DT, SLC2A1-DT plasmid or siYWHAZ

## tyrosine 3-monooxygenase/tryptophan 5-monooxygenase activation protein zeta (YWHAZ) (from UniProt P63104 1-245)
  binding: binds
